# Reference: the supplement of paper PMC10849652
# By UniProt entry, the sequences of proteins in these tests, tags left out. Where a name states a change or a piece, a line headed by the entry shows the natural chain unless it says otherwise.
# UniProt Q99816: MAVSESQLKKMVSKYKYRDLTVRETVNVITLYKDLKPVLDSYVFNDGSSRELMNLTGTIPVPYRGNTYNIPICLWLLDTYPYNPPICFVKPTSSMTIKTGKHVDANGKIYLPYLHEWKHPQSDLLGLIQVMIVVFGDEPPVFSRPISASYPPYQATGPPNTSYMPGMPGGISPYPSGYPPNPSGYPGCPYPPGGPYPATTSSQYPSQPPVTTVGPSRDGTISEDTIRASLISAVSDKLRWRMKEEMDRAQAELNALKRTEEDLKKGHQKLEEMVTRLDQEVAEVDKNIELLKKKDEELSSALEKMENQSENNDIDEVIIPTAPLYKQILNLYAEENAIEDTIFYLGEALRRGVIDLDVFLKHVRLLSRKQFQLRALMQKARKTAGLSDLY
# UniProt P68363, whole entry, looked up: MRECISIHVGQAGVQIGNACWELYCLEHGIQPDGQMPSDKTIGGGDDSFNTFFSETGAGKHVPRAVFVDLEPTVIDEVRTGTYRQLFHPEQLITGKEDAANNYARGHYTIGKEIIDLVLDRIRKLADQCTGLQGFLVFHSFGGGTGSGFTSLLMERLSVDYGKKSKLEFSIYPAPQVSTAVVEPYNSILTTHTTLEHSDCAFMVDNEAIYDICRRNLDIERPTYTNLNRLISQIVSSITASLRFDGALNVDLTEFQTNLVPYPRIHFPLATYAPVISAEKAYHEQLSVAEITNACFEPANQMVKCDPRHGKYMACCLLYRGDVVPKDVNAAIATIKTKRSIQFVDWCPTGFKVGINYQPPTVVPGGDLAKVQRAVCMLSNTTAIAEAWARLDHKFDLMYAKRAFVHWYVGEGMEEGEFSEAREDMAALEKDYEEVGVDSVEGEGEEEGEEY
# UniProt P62253: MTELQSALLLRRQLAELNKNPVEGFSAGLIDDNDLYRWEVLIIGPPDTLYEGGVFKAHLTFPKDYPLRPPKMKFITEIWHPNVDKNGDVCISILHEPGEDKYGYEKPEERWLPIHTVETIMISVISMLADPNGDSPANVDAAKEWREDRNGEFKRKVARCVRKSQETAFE
# UniProt Q9NV66: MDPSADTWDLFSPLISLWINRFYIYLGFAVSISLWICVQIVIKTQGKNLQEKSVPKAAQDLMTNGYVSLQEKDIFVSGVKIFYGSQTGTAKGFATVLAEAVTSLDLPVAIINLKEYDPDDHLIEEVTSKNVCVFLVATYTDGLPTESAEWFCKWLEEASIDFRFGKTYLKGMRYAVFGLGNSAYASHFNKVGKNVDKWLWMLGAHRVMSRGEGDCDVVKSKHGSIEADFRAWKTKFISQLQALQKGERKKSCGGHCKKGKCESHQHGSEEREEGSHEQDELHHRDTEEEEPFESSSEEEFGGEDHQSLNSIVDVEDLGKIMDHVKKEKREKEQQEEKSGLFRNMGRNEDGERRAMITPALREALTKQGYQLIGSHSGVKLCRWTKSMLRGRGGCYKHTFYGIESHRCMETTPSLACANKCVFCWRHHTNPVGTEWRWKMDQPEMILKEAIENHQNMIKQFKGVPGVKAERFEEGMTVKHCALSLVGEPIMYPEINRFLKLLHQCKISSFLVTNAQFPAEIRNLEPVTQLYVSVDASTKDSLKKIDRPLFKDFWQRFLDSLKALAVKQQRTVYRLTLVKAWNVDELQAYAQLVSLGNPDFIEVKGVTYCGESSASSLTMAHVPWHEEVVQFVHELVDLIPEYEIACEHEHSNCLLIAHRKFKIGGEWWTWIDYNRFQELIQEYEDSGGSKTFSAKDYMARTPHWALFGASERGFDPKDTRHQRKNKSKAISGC
# UniProt Q99757: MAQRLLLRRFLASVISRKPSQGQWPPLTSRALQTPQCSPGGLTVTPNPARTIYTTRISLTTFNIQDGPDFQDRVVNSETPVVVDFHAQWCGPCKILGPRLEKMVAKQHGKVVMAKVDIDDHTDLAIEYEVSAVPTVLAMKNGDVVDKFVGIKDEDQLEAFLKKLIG
# UniProt P22314: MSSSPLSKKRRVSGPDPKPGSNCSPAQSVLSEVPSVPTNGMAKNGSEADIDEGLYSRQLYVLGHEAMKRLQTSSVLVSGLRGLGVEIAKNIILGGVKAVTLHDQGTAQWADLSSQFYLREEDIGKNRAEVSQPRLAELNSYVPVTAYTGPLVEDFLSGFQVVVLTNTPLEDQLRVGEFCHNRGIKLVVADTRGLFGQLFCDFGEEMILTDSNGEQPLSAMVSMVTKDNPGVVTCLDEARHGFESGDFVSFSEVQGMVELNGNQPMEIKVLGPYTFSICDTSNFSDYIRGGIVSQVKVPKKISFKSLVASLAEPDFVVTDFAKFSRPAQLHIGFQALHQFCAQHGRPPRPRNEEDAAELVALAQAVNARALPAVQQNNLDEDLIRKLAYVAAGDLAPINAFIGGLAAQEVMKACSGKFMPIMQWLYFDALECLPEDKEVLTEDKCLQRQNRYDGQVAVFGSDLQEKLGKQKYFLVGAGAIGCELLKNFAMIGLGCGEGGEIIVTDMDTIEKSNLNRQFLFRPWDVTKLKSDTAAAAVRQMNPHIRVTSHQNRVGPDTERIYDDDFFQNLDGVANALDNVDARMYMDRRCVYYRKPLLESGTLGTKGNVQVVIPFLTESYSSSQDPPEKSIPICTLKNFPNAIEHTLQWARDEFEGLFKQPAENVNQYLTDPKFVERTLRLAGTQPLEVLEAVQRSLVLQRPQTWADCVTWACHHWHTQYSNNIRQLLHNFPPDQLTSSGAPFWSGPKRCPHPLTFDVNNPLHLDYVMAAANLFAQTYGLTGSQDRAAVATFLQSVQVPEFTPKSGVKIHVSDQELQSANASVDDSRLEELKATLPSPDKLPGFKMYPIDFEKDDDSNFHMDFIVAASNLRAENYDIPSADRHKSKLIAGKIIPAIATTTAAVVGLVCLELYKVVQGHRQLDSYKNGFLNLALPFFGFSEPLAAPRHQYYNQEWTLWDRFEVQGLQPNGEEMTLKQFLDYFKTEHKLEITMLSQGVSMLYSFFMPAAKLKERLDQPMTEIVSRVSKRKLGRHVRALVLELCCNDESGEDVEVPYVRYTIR
# UniProt Q13509, whole entry, looked up: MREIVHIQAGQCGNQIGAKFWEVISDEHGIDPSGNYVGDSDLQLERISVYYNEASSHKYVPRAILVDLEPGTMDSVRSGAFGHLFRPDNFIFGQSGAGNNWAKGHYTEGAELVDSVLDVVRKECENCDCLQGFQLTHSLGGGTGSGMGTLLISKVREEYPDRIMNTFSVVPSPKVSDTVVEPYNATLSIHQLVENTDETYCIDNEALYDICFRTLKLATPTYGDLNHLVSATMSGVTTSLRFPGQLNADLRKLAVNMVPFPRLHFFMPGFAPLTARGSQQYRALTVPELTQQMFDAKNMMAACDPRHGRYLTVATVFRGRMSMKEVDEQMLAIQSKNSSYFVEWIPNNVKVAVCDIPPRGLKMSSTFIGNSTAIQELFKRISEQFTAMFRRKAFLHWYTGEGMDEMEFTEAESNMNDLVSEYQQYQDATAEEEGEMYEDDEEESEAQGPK
# UniProt P43897: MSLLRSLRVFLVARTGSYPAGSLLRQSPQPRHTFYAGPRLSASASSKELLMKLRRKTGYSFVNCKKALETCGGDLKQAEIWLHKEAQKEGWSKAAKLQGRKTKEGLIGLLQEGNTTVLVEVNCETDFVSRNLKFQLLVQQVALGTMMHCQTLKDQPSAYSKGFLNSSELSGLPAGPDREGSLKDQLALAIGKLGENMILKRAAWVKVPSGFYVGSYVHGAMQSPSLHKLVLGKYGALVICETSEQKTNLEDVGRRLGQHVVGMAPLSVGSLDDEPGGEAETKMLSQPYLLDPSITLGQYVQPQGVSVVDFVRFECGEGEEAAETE
# UniProt Q6IBS0: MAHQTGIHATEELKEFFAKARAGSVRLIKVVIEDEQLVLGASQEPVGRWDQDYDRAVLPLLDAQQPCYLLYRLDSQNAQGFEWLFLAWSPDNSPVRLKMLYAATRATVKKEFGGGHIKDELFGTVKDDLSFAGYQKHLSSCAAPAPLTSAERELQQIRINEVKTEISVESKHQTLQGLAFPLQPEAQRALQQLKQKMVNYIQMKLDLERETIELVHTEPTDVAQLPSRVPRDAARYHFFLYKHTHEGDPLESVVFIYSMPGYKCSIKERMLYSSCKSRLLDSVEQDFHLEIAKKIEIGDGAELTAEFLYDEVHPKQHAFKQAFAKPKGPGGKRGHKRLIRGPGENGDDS
# UniProt Q9NUQ3: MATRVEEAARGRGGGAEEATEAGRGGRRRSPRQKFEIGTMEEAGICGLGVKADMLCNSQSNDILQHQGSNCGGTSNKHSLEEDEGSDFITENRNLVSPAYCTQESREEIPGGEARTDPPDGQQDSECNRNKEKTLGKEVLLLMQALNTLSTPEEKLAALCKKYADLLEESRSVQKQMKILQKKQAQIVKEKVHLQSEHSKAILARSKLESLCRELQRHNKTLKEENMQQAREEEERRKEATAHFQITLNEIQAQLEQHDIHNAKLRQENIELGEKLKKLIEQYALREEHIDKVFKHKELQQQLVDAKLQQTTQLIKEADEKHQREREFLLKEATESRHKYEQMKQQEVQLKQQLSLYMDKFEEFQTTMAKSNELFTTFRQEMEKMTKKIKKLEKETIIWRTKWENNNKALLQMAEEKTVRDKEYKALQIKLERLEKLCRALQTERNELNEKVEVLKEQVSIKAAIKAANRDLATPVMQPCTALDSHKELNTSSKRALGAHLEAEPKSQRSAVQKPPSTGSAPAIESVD
# UniProt P26368, whole entry, looked up: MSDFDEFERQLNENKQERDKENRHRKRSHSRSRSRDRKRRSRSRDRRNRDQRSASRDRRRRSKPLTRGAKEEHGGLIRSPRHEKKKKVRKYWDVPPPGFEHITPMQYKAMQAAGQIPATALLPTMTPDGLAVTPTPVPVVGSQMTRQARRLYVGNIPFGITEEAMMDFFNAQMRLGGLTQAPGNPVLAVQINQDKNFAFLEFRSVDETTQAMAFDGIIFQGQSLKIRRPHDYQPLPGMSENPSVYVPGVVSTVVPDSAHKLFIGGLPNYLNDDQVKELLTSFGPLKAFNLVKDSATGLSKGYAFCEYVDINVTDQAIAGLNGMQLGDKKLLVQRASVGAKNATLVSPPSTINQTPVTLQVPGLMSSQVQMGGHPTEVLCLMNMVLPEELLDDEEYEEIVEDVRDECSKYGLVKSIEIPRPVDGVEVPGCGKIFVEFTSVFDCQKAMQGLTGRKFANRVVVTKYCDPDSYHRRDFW
# UniProt Q969E8: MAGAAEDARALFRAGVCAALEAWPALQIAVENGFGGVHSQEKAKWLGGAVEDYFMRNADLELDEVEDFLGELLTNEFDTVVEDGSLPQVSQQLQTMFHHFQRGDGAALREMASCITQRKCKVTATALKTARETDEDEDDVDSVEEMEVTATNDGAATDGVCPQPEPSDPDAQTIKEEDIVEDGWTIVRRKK
# UniProt P63279, whole entry, looked up: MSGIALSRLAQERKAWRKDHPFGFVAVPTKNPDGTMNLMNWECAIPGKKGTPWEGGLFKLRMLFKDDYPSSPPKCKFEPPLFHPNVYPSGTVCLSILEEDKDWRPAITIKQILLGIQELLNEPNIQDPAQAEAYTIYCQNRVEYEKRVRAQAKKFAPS
# UniProt Q14157: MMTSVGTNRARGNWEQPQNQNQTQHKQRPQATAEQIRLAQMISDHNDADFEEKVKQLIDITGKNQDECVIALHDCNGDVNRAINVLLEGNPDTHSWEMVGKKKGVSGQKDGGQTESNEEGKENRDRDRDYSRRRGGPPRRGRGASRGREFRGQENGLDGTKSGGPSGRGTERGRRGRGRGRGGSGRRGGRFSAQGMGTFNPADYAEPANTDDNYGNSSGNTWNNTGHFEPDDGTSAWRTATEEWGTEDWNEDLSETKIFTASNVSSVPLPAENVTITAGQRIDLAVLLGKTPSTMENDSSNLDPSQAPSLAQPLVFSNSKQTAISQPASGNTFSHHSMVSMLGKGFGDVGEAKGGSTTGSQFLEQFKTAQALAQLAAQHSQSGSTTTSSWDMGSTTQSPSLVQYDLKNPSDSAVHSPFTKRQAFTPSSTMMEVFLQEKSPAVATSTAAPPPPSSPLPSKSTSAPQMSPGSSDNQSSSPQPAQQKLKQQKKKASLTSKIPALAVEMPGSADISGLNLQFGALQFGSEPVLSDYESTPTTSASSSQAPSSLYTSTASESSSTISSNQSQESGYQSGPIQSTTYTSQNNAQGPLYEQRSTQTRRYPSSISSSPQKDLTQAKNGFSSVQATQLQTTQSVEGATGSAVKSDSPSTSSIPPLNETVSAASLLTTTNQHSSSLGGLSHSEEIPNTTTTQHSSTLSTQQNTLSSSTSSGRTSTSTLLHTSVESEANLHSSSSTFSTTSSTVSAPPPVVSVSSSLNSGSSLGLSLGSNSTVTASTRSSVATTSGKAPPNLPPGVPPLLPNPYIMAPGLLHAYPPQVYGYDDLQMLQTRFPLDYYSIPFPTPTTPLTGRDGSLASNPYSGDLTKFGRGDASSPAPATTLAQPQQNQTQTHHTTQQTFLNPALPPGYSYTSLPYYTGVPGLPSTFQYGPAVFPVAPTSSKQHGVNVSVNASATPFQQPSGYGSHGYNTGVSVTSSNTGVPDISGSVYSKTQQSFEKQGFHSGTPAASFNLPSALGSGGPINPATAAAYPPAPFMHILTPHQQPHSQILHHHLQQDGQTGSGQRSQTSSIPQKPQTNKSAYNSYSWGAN
# The other results are listed elsewhere or left out.
# Compound: CC1=CC=C(C=C1)SC2=C3C=C(SC3=CN=C2)C(=O)N
# Assay: log2 fold change, soluble protein after heating vs DMSO (PISA); higher = thermal stabilisation; K562 cells, 10 uM, 30 min; active = over 0.2 and 3.5 SD of the protein, either way, in both replicates (recomputed)
# How it was run: (§1)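 For each measurement, 10 μM compound was applied for 30 min to K562 cells at 2×10^6 cells/mL. Aliquots were heated for 3 min across 48°C-58°C, pooled, and extracted in PBS with 0.5% NP-40 at 4°C; the supernatant after 21,000xg for 90 min was soluble protein. This was quantified by TMTpro 16plex LC-MS/MS with channel sums equalised, and thermal stability was reported relative to control samples from duplicates, on a log2 fold-change scale.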
row,Target,log2 fold change
1,TSG101 (UniProt Q99816),inactive: -0.001
2,TUBA1B (UniProt P68363),inactive: 0.01
3,UBA52 (UniProt P62987),inactive: -0.107
4,UBE2G1 (UniProt P62253),inactive: 0.04
5,TYW1 (UniProt Q9NV66),inactive: 0.023
6,TXN2 (UniProt Q99757),inactive: -0.009
7,UBA1 (UniProt P22314),inactive: 0.048
8,UBA6,inactive: 0.032
9,TUBB3 (UniProt Q13509),inactive: 0.011
10,TSFM (UniProt P43897),inactive: 0.021
11,TWF2 (UniProt Q6IBS0),inactive: 0.015
12,TXLNG (UniProt Q9NUQ3),inactive: 0.003
13,TTN isoform 12 (UniProt Q8WZ42),inactive: -0.187
14,U2AF2 (UniProt P26368),inactive: -0.066
15,TSR2 (UniProt Q969E8),inactive: -0.009
16,TUFM (UniProt P49411),inactive: 0.011

# Compound: CC1=NC(=CC=C1)C2=C(N=C(N2)C(C)(C)C)C3=CC4=NC=CN=C4C=C3
# Assay: as above
# How it was run: as §1
row,Target,log2 fold change
1,TSPAN14 (UniProt Q8NG11),inactive: -0.011
2,UBE2J1 (UniProt Q9Y385),inactive: 0.04
3,UBE2H (UniProt P62256),inactive: 0.021
4,TUBA1C (UniProt Q9BQE3),inactive: 0.034
5,UBE2I (UniProt P63279),inactive: 0.018
6,UBAP2L isoform 1 (UniProt Q14157),inactive: 0.025
7,TTPAL (UniProt Q9BTX7),inactive: -0.044
8,TXNRD1 (UniProt Q16881),inactive: 0.039
9,TXNL1 (UniProt O43396),inactive: 0.098
10,TTC27 (UniProt Q6P3X3),inactive: -0.026
11,TTI2 (UniProt Q6NXR4),inactive: 0.023
12,UAP1L1 (UniProt Q3KQV9),inactive: 0.041
13,TXNIP (UniProt Q9H3M7),inactive: 0.034
14,UBAP1 isoform 4 (UniProt Q9NZ09),inactive: -0.015
15,UBAP2L isoform 5 (UniProt Q14157),inactive: 0.013
16,TSG101 (UniProt Q99816),inactive: 0.025

row,Target,log2 fold change
1,TUBA1B (UniProt P68363),inactive: 0.022
2,UBA52 (UniProt P62987),inactive: -0.16
3,UBE2G1 (UniProt P62253),inactive: 0.003
4,TYW1 (UniProt Q9NV66),inactive: 0.074
5,TXN2 (UniProt Q99757),inactive: 0.036
6,UBA1 (UniProt P22314),inactive: 0.006
7,UBA6,inactive: 0.02
8,TUBB3 (UniProt Q13509),inactive: 0.076
9,TSFM (UniProt P43897),inactive: 0.11
10,TWF2 (UniProt Q6IBS0),inactive: 0.032
11,TXLNG (UniProt Q9NUQ3),inactive: 0.013
12,TTMP isoform 3 (UniProt Q5BVD1),inactive: -0.14
13,TTN isoform 12 (UniProt Q8WZ42),inactive: -0.174
14,U2AF2 (UniProt P26368),inactive: 0.047
15,TSR2 (UniProt Q969E8),inactive: 0.111
16,TUFM (UniProt P49411),inactive: 0.019

# Compound: CCCCN(Cc1ccc(C(=O)NO)cc1)C(=O)Nc1ccccc1 [Nexturastat A]
# Assay: as above
# How it was run: as §1
row,Target,log2 fold change
1,TSPAN14 (UniProt Q8NG11),inactive: -0.072
2,UBE2J1 (UniProt Q9Y385),inactive: -0.077
3,UBE2H (UniProt P62256),inactive: -0.006
4,TUBA1C (UniProt Q9BQE3),inactive: -0.025
5,UBE2I (UniProt P63279),inactive: 0.011
6,UBAP2L isoform 1 (UniProt Q14157),inactive: 0.012
7,TTPAL (UniProt Q9BTX7),inactive: 0.017
8,TXNRD1 (UniProt Q16881),inactive: -0.051
9,TXNL1 (UniProt O43396),inactive: 0.117
10,TTC27 (UniProt Q6P3X3),inactive: 0.237
11,TTI2 (UniProt Q6NXR4),inactive: 0.113
12,UAP1L1 (UniProt Q3KQV9),inactive: -0.025
13,TXNIP (UniProt Q9H3M7),inactive: 0.177
14,UBAP1 isoform 4 (UniProt Q9NZ09),inactive: -0.049
15,UBAP2L isoform 5 (UniProt Q14157),inactive: 0.017
16,TSG101 (UniProt Q99816),inactive: -0.017

row,Target,log2 fold change
1,TUBA1B (UniProt P68363),inactive: -0.124
2,UBA52 (UniProt P62987),inactive: 0.281
3,UBE2G1 (UniProt P62253),inactive: -0.132
4,TYW1 (UniProt Q9NV66),inactive: -0.08
5,TXN2 (UniProt Q99757),inactive: 0.093
6,UBA1 (UniProt P22314),inactive: -0.066
7,UBA6,inactive: -0.027
8,TUBB3 (UniProt Q13509),inactive: -0.021
9,TSFM (UniProt P43897),inactive: -0.057
10,TWF2 (UniProt Q6IBS0),inactive: -0.033
11,TXLNG (UniProt Q9NUQ3),inactive: -0.041
12,TTMP isoform 3 (UniProt Q5BVD1),inactive: 0.324
13,TTN isoform 12 (UniProt Q8WZ42),inactive: 0.153
14,U2AF2 (UniProt P26368),inactive: -0.048
15,TSR2 (UniProt Q969E8),inactive: -0.128
16,TUFM (UniProt P49411),inactive: -0.079
